Data published in patent US9415107B2, “Compositions and methods for the treatment of addiction and other neuropsychiatric disorders” (priority 2005, dated 2016).

Experiment: Pharmacokinetic interaction between cocaine, metyrapone and oxazepam (plasma concentrations by GCMS)
Details: ip co-administration

O=C1Nc2ccc(Cl)cc2C(c2ccccc2)=NC1O (stereo not shown) [oxazepam]
effect on plasma concentrations of each other (metyrapone, oxazepam): did not influence plasma concentrations of each other
